# From PubChem BioAssay (NCATS)
# Amino acid sequences for entries named in this document (tags omitted). A change or cut given only in a name is not applied to a line headed by its entry.
# UniProt P19793: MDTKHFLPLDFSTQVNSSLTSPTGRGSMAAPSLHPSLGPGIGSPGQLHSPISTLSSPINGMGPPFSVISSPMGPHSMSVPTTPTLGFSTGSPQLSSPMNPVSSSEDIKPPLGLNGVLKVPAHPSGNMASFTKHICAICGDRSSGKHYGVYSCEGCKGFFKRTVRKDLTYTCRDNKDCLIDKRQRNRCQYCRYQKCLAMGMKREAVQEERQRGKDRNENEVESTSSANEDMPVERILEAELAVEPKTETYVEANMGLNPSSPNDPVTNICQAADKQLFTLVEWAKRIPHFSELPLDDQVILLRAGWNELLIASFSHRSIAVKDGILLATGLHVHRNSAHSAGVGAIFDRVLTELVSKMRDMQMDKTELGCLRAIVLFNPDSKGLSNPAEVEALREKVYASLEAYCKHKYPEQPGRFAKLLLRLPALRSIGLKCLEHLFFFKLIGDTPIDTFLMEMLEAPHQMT
# UniProt P51449: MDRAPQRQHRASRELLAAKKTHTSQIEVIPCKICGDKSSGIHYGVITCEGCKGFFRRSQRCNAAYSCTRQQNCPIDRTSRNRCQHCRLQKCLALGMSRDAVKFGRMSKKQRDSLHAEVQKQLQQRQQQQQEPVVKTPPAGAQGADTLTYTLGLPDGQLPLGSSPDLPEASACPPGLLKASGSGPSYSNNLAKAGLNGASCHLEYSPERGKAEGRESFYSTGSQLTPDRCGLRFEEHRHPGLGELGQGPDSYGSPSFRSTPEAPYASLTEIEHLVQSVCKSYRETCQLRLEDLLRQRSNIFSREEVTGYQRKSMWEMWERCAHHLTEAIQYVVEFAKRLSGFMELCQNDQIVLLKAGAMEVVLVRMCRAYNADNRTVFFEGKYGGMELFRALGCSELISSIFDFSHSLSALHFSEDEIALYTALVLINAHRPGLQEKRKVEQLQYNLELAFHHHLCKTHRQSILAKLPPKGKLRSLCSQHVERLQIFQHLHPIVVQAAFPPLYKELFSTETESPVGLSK
# UniProt P08684, whole entry, looked up: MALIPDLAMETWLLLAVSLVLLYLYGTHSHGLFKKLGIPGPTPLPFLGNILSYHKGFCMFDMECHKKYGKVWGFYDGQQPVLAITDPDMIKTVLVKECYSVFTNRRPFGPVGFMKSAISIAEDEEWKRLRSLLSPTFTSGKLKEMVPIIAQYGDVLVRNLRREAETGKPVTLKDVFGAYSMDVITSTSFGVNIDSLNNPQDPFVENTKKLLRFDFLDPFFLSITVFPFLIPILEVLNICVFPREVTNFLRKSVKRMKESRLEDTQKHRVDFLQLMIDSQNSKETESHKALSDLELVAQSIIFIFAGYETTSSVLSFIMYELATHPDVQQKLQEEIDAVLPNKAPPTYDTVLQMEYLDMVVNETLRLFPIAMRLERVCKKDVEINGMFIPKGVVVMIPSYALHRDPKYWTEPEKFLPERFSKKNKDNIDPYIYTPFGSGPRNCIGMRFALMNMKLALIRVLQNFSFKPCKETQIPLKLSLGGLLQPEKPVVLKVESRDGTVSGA
# UniProt Q03181: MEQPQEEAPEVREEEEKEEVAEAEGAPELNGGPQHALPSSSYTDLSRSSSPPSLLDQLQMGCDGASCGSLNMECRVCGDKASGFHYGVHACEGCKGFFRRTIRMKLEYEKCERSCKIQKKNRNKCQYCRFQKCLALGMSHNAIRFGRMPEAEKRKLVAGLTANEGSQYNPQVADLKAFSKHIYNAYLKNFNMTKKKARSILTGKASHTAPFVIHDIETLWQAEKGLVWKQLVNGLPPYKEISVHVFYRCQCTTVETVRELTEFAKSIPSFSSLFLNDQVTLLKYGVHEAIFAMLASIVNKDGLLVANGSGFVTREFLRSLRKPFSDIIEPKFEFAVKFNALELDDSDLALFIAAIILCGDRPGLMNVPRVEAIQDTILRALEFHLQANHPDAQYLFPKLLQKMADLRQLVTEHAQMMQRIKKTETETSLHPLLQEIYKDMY
# UniProt P10828: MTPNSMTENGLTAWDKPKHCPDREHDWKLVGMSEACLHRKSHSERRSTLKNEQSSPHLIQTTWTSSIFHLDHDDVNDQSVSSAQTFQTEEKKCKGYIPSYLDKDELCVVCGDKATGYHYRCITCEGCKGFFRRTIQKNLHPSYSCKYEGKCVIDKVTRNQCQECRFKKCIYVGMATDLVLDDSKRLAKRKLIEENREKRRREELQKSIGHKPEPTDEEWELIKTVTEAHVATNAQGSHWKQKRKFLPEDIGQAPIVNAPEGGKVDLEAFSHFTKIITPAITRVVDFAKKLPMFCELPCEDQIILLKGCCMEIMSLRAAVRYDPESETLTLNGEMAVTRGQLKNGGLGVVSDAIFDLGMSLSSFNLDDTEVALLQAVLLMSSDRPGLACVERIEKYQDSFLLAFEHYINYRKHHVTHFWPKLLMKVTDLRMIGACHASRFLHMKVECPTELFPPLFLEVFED
# Values joined by “and” are separate entries in the source; they are usually repeats but may differ in a detail not shown here. Identical values can stand only once. This list was built around the results that the source calls inconclusive (neither active nor inactive); the mix of calls is not that of the screen. For part of these data: Potencies of inconclusive entries are doubtful fits and often do not repeat. For part of these data: A note “side channel” means that the fit belongs to a control or component signal, not to the main read-out. Active and inactive are the calls of the source. Unless noted, calls come from the whole dose curve.
# Legend:
# [1] = molecular target: Bile acid receptor (Homo sapiens) (UniProt Q96RI1); experiment: qHTS assay for small molecule agonists of farnesoid X receptor signaling (AID 588527); settings: HEK293T FXR-UAS-bla, beta-lactamase ratio, 16 h; activation: hits give high values; note: potency is the fitted concentration of half-maximal effect
# Method in brief: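 Agonist-mode beta-lactamase reporter in GeneBLAzer FXR-UAS-bla HEK293T cells, titration up to 92 uM, 16 h exposure at 37 C, CCF4 fluorescence. Response scaled to DMSO (0%) and 100 uM chenodeoxycholic acid (100%), then Hill-fitted for EC50 and efficacy.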
# [2] = molecular target: Retinoic acid receptor RXR-alpha (Homo sapiens) (UniProt P19793); experiment: qHTS assay for small molecule agonists of retinoid X receptor alpha signaling (AID 588544); settings: HEK293T RXRa-UAS-bla, beta-lactamase reporter, 18 h; activation: at 76.7 µM (top of the series) unless noted; note: potency is the fitted concentration of half-maximal effect;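 for activation: 0% = DMSO basal wells and 100% = reference agonist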
# [3] = qHTS assay for small molecule agonists of the antioxidant response element (ARE) signaling pathway (AID 651741; active = well fitted activation curve with a large enough effect in the signal ratio; inconclusive = small, poorly fitted or top-dose-only effect, or effect the other way, or a change in a side signal; the % refers to the signal ratio; note: potency is the fitted concentration of half-maximal effect; for activation: % of control where 0% means no effect); settings: HepG2 ARE-bla reporter, beta-lactamase FRET ratio, 16 h; activation: at 96 µM (top of the series) unless noted
# Method in brief: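 Reporter: beta-lactamase under ARE, stably in HepG2. Exposure: 16 h, 37 C, compounds delivered in DMSO by pin tool after 5 h cell preincubation. Readout: FRET substrate fluorescence after 2 h at RT.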
# [4] = molecular target: Nuclear receptor ROR-gamma (Homo sapiens) (UniProt P51449); experiment: qHTS assay for small molecule antagonists of the retinoid-related orphan receptor gamma (ROR-gamma) signaling pathway (AID 651802; active = well fitted curve in the direction sought with a large enough effect; inconclusive = small, poorly fitted or top-dose-only effect, or another doubt; inactive = no such curve, though single readings can be large; an effect the other way counts as inactive or inconclusive; note: potency is the fitted concentration of half-maximal effect; nearly all actives have a fitted effect of over 60% in size)
# Method in brief: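 Steps: cells dispensed; compound or DMSO transferred by pin tool; doxycycline added to induce the ROR response element-driven luciferase; plates held 16hr at 37C; ONE-Glo added and luminescence measured.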
# [5] = Cellular Toxicity (caspase-3) NIH 3T3 (AID 666; active = well fitted curve in the direction sought with a large enough effect; inconclusive = small, poorly fitted or top-dose-only effect, or another doubt; inactive = no such curve, though single readings can be large; an effect the other way counts as inactive or inconclusive;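 note: caspase signal read after 16 h compound exposure; 0% = DMSO basal and 100% = 100 µM tamoxifen stimulation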)
# Method in brief: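 Cells were plated at 1000 per well and incubated 5 hr at 37°C, then compound was added for 16 hr. Caspase-Glo 3/7 reagent followed for 20 min at room temperature before luminescence was read.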
# [6] = MultiTox-Fluor Cytotoxicity Assay - LYMP1-002 - Dead Cells (AID 960; active = well fitted curve in the direction sought with a large enough effect; inconclusive = small, poorly fitted or top-dose-only effect, or another doubt; inactive = no such curve, though single readings can be large; an effect the other way counts as inactive or inconclusive; note: potency is the fitted concentration of half-maximal effect; nearly all actives have a fitted effect of over 60% in size); settings: LYMP1-002 lymphoblastoid cells, dead-cell protease fluorescence; cytotoxicity (dead cells): at 46.1 µM (top of the series)
# Method in brief: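 Cells were plated, rested 5 hr, then treated with compound dilution series for 16 hr at 37 C. After adding substrate reagent and 60 min at room temperature, dead-cell protease fluorescence gave concentration-response curves fitted by the Hill equation.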
# [7] = Cell Viability - LYMP2-005 (AID 967; active = well fitted curve in the direction sought with a large enough effect; inconclusive = small, poorly fitted or top-dose-only effect, or another doubt; inactive = no such curve, though single readings can be large; an effect the other way counts as inactive or inconclusive; note: potency is the fitted concentration of half-maximal effect)
# Method in brief: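 Steps: seed 2500 LYMP2-005 cells/well, incubate 5 h at 37 C, add compound, incubate 24 h at 37 C, add CellTiter-Glo, wait 30 min at RT, read luminescence. Concentration-response data fitted to Hill equation for AC50.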
# [8] = molecular target: Bile acid receptor (Homo sapiens) (UniProt Q96RI1); experiment: qHTS assay for small molecule antagonists of farnesoid X receptor signaling (AID 588526); settings: HEK293T FXR-UAS-bla, beta-lactamase ratio, antagonist mode; activity change, negative = inhibition: at 76.7 µM (top of the series); note: potency is the fitted concentration of half-maximal effect; for activity change, negative = inhibition: % is set by controls: 0 for no effect and ±100 for the full control effect
# Method in brief: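 Concentration-response titrations were fitted to the Hill equation for half-maximal inhibition and maximal response, with data normalised to 50 uM chenodeoxycholic acid and DMSO control wells. Cells: FXR-UAS-bla HEK293T, dialyzed FBS.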
# [9] = molecular target: Peroxisome proliferator-activated receptor gamma (Homo sapiens) (UniProt P37231); experiment: qHTS assay for small molecule antagonists of peroxisome proliferator-activated receptor gamma signaling (AID 588537; active = well fitted inhibition curve with a large enough effect in the signal ratio, with a control signal flat, not every such curve was filed as active; inconclusive = small, poorly fitted or top-dose-only effect, or effect the other way, or a change in a side signal; the % refers to the signal ratio;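 note: reporter cells co-stimulated with 50 nM rosiglitazone agonist during compound treatment; % of control where 0% means no effect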); settings: HEK293 PPARg-UAS-bla, beta-lactamase ratio, antagonist mode; activity, negative = inhibition: at 76.8 µM (top of the series)
# Method in brief: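 Compounds are tested as concentration series for inhibition of rosiglitazone-driven (50 nM) reporter expression in GeneBLAzer PPAR-gamma-UAS-bla HEK293 cells. After 16 h at 37 C, CCF4 substrate is added for 2 h at room temperature and blue/green fluorescence is measured.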
# [10] = qHTS assay for small molecule disruptors of the mitochondrial membrane potential - 1 hr assay (AID 651754); settings: ratio change, negative = depolarisation: at 92.2 µM (top of the series); note: % is set by controls: 0 for no effect and ±100 for the full control effect; nearly all actives have a fitted effect of over 35% in size
# Method in brief: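 Loss of mitochondrial potential shifts the cationic dye from red mitochondrial aggregates to green cytoplasmic monomers. Cells (HepG2) are treated with compound for 1 hr before a 30 min dye incubation at 37C.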
# [11] = qHTS assay to identify small molecules that stimulate interleukin-8 (IL-8) secretion (AID 651758; active = well fitted activation curve with a large enough effect in the signal ratio; inconclusive = small, poorly fitted or top-dose-only effect, or effect the other way, or a change in a side signal; the % refers to the signal ratio; note: 0% is about no effect); settings: HTRF ratio (665/615); activation: at 92.2 µM (top of the series)
# Method in brief: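 Quantitative HTS in THP-1 monocytic cells at 2000 cells per well, with 16 hrs compound incubation at 37 C. IL-8 in the medium was then quantified by HTRF immunoassay, read after 1-3 hrs at room temperature.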
# [12] = qHTS assay for small molecule agonists of the antioxidant response element (ARE) signaling pathway measured by Nrf2-dependant transcriptional activity (AID 720636; active = well fitted curve in the direction sought with a large enough effect in the repeat runs; inconclusive = weak or mixed curves; inactive = no such curve, though single readings can be large; an effect the other way counts as inactive or inconclusive;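 note: HepG2 cells with an ARE-driven luciferase reporter; % of control where 0% means no effect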)
# Method in brief: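 First, ARE-luc HepG2 cells attached for 6 hr at 37 C in 1% dialyzed FBS medium. Next, compound or DMSO was added and incubated 16 hr. Finally, ONE-Glo reagent was added and luminescence measured after 30 min.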
# [13] = molecular target: Retinoic acid receptor RXR-alpha (Homo sapiens) (UniProt P19793); experiment: qHTS assay for small molecule antagonists of retinoid X receptor alpha signaling (AID 588546; active = well fitted inhibition curve with a large enough effect in the signal ratio, with a control signal flat, not every such curve was filed as active; inconclusive = small, poorly fitted or top-dose-only effect, or effect the other way, or a change in a side signal; inactive = no such curve, though single readings can be large or run the other way; the % refers to the signal ratio;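 note: cells stimulated with 9-cis-retinoic acid as agonist; % is set by controls: 0 for no effect and ±100 for the full control effect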); settings: HEK293T RXRa-UAS-bla, beta-lactamase ratio, antagonist mode
# Method in brief: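 Beta-lactamase reporter inhibition, read as CCF4 fluorescence ratio (ex 405, em 460/530 nm) after 2 h at RT. HEK293T UAS-bla cells, 2500/well, were stimulated with 9-cis-RA at 500 or 100 nM final alongside test compound for 18 h at 37 C.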
# [14] = molecular target: Cytochrome P450 3A4 (Homo sapiens) (UniProt P08684); experiment: qHTS Assay for Inhibitors and Substrates of Cytochrome P450 3A4 (AID 884; active = well fitted curve in the direction sought with a large enough effect; inconclusive = small, poorly fitted or top-dose-only effect, or another doubt; inactive = no such curve, though single readings can be large; an effect the other way counts as inactive or inconclusive; note: % is set by controls: 0 for no effect and ±100 for the full control effect; nearly all actives have a fitted effect of over 50% in size)
# Method in brief: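 Luminescent readout of luciferin produced by CYP3A4 (20 nM) dealkylation of Luciferin-PPXE, 25 uM (its KM). NADPH-driven reaction ran 60 min at RT after 10 min compound preincubation; data scaled to 57 uM ketoconazole as 100% inhibition.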
# [15] = Cell Viability - LYMP2-016 (AID 984; active = well fitted curve in the direction sought with a large enough effect; inconclusive = small, poorly fitted or top-dose-only effect, or another doubt; inactive = no such curve, though single readings can be large; an effect the other way counts as inactive or inconclusive;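 note: cells exposed to compound for 24 hours at 37 °C; % is set by controls: 0 for no effect and ±100 for the full control effect; nearly all actives have a fitted effect of over 55% in size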)
# Method in brief: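 qHTS, 1536-well: 2500 LYMP2-016 cells/well, 5 hr 37 C, compound added, 24 hr 37 C, CellTiter-Glo 30 min RT, luminescence. Tetraoctylammonium bromide positive control. AC50 via Hill fit.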
# [16] = molecular target: Peroxisome proliferator-activated receptor delta (Homo sapiens) (UniProt Q03181); experiment: qHTS assay for small molecule antagonists of peroxisome proliferator-activated receptor delta signaling (AID 588535; active = well fitted inhibition curve with a large enough effect in the signal ratio, with a control signal flat, not every such curve was filed as active; inconclusive = small, poorly fitted or top-dose-only effect, or effect the other way, or a change in a side signal; inactive = no such curve, though single readings can be large or run the other way; the % refers to the signal ratio; note: potency is the fitted concentration of half-maximal effect); settings: HEK293T PPARd-UAS-bla, beta-lactamase FRET ratio, 18 h; activity change, negative = inhibition: at 76.7 µM (top of the series) unless noted
# Method in brief: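 Inhibition of PPAR-delta response element-driven beta-lactamase expression is measured in HEK293T cells exposed to a compound titration series for 18 hrs at 37 C. Half-maximal inhibition comes from Hill equation fitting.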
# [17] = Cell Viability - LYMP1-002 - Assay at 24 hr (AID 993; active = well fitted curve in the direction sought with a large enough effect; inconclusive = small, poorly fitted or top-dose-only effect, or another doubt; inactive = no such curve, though single readings can be large; an effect the other way counts as inactive or inconclusive; note: % is set by controls: 0 for no effect and ±100 for the full control effect); settings: LYMP1-002 lymphoblastoid cells viability; at 92.2 µM (top of the series)
# Method in brief: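 Acute toxicity is measured as concentration-dependent loss of cellular ATP in a human lymphoblastoid line (Coriell LYMP1-002) after 24 h treatment in complete medium. ATP is quantified by luciferase luminescence and AC50 derived by Hill modelling.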
# [18] = molecular target: Thyroid hormone receptor beta (Homo sapiens) (UniProt P10828); experiment: qHTS assay for small molecule antagonists of thyroid hormone receptor beta signaling (AID 588547; active = well fitted inhibition curve with a large enough effect in the signal ratio, with a control signal flat, not every such curve was filed as active; inconclusive = small, poorly fitted or top-dose-only effect, or effect the other way, or a change in a side signal; the % refers to the signal ratio; note: potency is the fitted concentration of half-maximal effect); settings: TR-UAS-bla HEK293, beta-lactamase ratio, antagonist mode, 18 h
# Method in brief: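 TR-UAS-bla GripTite HEK293 cells in 2% charcoal/dextran FBS medium were preincubated 4 h at 37 C, given compound (0.59 nM to 92 uM) plus 0.4 nM T3 (final) for 18 h, then CCF4 for 2 h at RT; Hill fit gave IC50.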
# [19] = qHTS assay for small molecule antagonists of the retinoid-related orphan receptor gamma (ROR-gamma) signaling pathway - cell viability counter screen (AID 720652; active = well fitted curve in the direction sought with a large enough effect in the repeat runs; inconclusive = weak or mixed curves; inactive = no such curve, though single readings can be large; an effect the other way counts as inactive or inconclusive;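 note: CHO reporter cells with doxycycline-induced ROR-gamma expression; compound exposure lasted 16 hr before ATP read; % is set by controls: 0 for no effect and ±100 for the full control effect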)
# Method in brief: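 Steps: seed CHO cells bearing TET-inducible ROR and ROR response element-luciferase; rest 5 hr at 37 C; add compound, then doxycycline; incubate 16 hr; add CellTiter-Glo and read luminescence as ATP-based viability.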
# [20] = Cell Viability - LYMP2-015 (AID 971; active = well fitted curve in the direction sought with a large enough effect; inconclusive = small, poorly fitted or top-dose-only effect, or another doubt; inactive = no such curve, though single readings can be large; an effect the other way counts as inactive or inconclusive;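 note: 0% = DMSO only and full effect = 92 µM tetraoctylammonium bromide; nearly all actives have a fitted effect of over 55% in size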); settings: LYMP2-015 lymphoblastoid cell viability; activity change, negative = lower viability: at 92.2 µM (top of the series)
# Method in brief: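 Cells are seeded at 2500 per well and incubated 5 hr at 37 C. Compounds are added across a concentration series for 24 hr at 37 C. CellTiter-Glo is added, and luminescence is read after 30 min at room temperature.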
# [21] = molecular target: Thyroid hormone receptor beta (Homo sapiens) (UniProt P10828); experiment: qHTS assay for small molecule agonists of thyroid hormone receptor beta signaling (AID 588545); settings: TR-UAS-bla GripTite HEK 293, beta-lactamase ratio, agonist mode, 18 h; activation: at 76.7 µM, percent of T3 response, DMSO as zero
# Method in brief: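 Agonist activity was read as beta-lactamase CCF4 fluorescence (405 ex, 460/530 em), scaled between DMSO (0%) and 10 nM T3 (100%), then Hill-fitted for EC50 and efficacy. HEK 293 TR-UAS-bla cells in 2% charcoal/dextran FBS medium were exposed 18 h at 37 C.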
structure (smiles),measurement,setting,value
CN(C)c1ccc(Cc2ccc(N(C)C)cc2)cc1,Potency,[1],"inconclusive: 22.4 µM [side channel, rising, single point]"
same,Potency,[2],"inconclusive: 25.1 µM [inhibitor, single point] and inconclusive: 35.5 µM [inhibitor, partial curve]"
same,Potency,[3],"inconclusive: 75 µM [activator, single point]"
same,Potency,[4],"inconclusive: 59.6 µM [inhibitor, partial curve, poor fit]"
ClCCOCCCl,Potency,[5],inactive
same,Potency,[6],"inconclusive: 0.0158 µM [cytotoxic, full curve, poor fit]"
same,Potency,[7],"inconclusive: 31.6 µM [cytotoxic, partial curve, poor fit]"
same,Potency,[8],inactive
same,"activity, negative = inhibition",[9],inconclusive: 17.8%
same,Potency,[2],inactive
same,Potency,[3],inactive
same,Potency,[10],inactive
same,activation,[11],inconclusive: 25.8%
same,Potency,[12],inactive
Brc1cccc(-c2ccccc2)c1,Potency,[8],inactive
same,max response,[13],inconclusive: -2.51%
same,Potency,[3],"inconclusive: 66.8 µM [activator, partial curve]"
same,activation,[11],inconclusive: -5.47%
OCCOCCO,Potency,[14],inactive
same,Potency,[15],inactive
same,Potency,[8],"inconclusive: 25.1 µM [cytotoxic, side channel, partial curve, poor fit]"
same,Potency,[16],inactive
same,Potency,[9],inactive
same,activation,[3],inconclusive: 9.72%
same,Potency,[11],inactive
CC1CC(=O)O1 (configuration not stated),"activity change, negative = cytotoxicity",[17],inactive: 2.65%
same,Potency,[8],inactive
same,Potency,[18],"inconclusive: 2 µM [cytotoxic, side channel, partial curve, poor fit]"
same,Potency,[3],inactive
same,activation,[11],inconclusive: 4.33%
same,Potency,[19],inactive
CCC/C=N/O,Potency,[20],inactive
same,Potency,[8],inactive
same,Potency,[9],inactive
same,max response,[13],inactive: -0.259%
same,activity change % (negative = inhibition),[18],inactive: 3.59%
same,activation,[3],inconclusive: 10.8%
same,Potency,[11],inactive
CC(C)N(C(=O)SCC(Cl)=C(Cl)Cl)C(C)C,Potency,[8],"inconclusive: 20 µM [fluorescent, side channel, partial curve, poor fit]"
same,Potency,[16],"inconclusive: 15.8 µM [fluorescent, single point]"
same,activation,[2],inconclusive: 28.1%
same,activation,[21],inconclusive: 30%
